For part of these data: Expression values are those of the mRNA of the gene that encodes the peptide; a gene is named only where it was looked up.
Experiments:
Design in all cases: species or system human
[1] = test system: HLA-A*24 molecules of primary tumors; experiment: Identification and relative LC-MS quantitation of HLA-A*24 tumor-associated peptides presented on tissue samples (XPRESIDENT presentation profiles); details: for ENTITIES: Table 9A: selected HLA-A*24-binding tumor-associated peptides, cancer entities on which the peptide was found presented
[2] = test system: source genes of selected peptides; experiment: Expression profiling of source genes by in-house RNAseq, tumor vs normal tissues (target coverage); details: for Target coverage, over-expression of source gene, AML: AML (N = 7), over-expression = more than 1.5-fold higher expression on tumor vs highest-expressing relevant normal tissue; for Target coverage, over-expression of source gene, AML / Target coverage, over-expression of source gene, BRCA / Target coverage, over-expression of source gene, CLL / Target coverage, over-expression of source gene, CRC / Target coverage, over-expression of source gene, GB / Target coverage, over-expression of source gene, HCC / Target coverage, over-expression of source gene, OC / Target coverage, over-expression of source gene, OSCAR / Target coverage, over-expression of source gene, PC / Target coverage, over-expression of source gene, RCC / Target coverage, over-expression of source gene, SCLC / Target coverage, over-expression of source gene, pNSCLC: in-house RNASeq; for Target coverage, over-expression of source gene, BRCA: BRCA (N = 10); for Target coverage, over-expression of source gene, BRCA / Target coverage, over-expression of source gene, CLL / Target coverage, over-expression of source gene, CRC / Target coverage, over-expression of source gene, GB / Target coverage, over-expression of source gene, HCC / Target coverage, over-expression of source gene, OC / Target coverage, over-expression of source gene, OSCAR / Target coverage, over-expression of source gene, PC / Target coverage, over-expression of source gene, RCC / Target coverage, over-expression of source gene, SCLC / Target coverage, over-expression of source gene, pNSCLC: over-expression = more than 1.5-fold vs highest normal tissue; for Target coverage, over-expression of source gene, CLL: CLL (N = 10); for Target coverage, over-expression of source gene, CRC: CRC (N = 20); for Target coverage, over-expression of source gene, GB: GB (N = 24); for Target coverage, over-expression of source gene, HCC: HCC (N = 15); for Target coverage, over-expression of source gene, OC: OC (N = 12); for Target coverage, over-expression of source gene, OSCAR: OSCAR (N = 11); for Target coverage, over-expression of source gene, PC: PC (N = 26); for Target coverage, over-expression of source gene, RCC: RCC (N = 10); for Target coverage, over-expression of source gene, SCLC: SCLC (N = 10); for Target coverage for source genes of selected peptides, GBC_CCC (N = 10): gallbladder adenocarcinoma and cholangiocarcinoma; for Target coverage for source genes of selected peptides, GBC_CCC (N = 10) / Target coverage for source genes of selected peptides, GC (N = 11) / Target coverage for source genes of selected peptides, HNSCC (N = 10) / Target coverage for source genes of selected peptides, MEL (N = 10) / Target coverage for source genes of selected peptides, NHL (N = 10) / Target coverage for source genes of selected peptides, PCA (n = 10) / Target coverage for source genes of selected peptides, UBC (N = 10) / Target coverage for source genes of selected peptides, UTC (N = 10): share of tumors with more than 1.5-fold higher expression than the highest-expressing relevant normal tissue, in-house RNAseq; for Target coverage for source genes of selected peptides, GC (N = 11): gastric cancer; for Target coverage for source genes of selected peptides, HNSCC (N = 10): head and neck small cell carcinoma; for Target coverage for source genes of selected peptides, MEL (N = 10): melanoma; for Target coverage for source genes of selected peptides, NHL (N = 10): non-Hodgkin lymphoma; for Target coverage, over-expression of source gene, pNSCLC: pNSCLC (N = 11); for Target coverage for source genes of selected peptides, PCA (n = 10): prostate cancer and benign prostate hyperplasia; for Target coverage for source genes of selected peptides, UBC (N = 10): urinary bladder cancer; for Target coverage for source genes of selected peptides, UTC (N = 10): uterine cancer
[3] = test system: source genes of selected peptides; experiment: Target coverage of source genes in tumor entities based on TCGA Research Network data; details: over-expressed = more than 2-fold above the highest 75% percentile of normal organs; for Target coverage, over-expression category of source gene, BLCA (N = 408): Bladder urothelial carcinoma; for Target coverage, over-expression category of source gene, CESC (N = 307): Cervical squamous cell carcinoma and endocervical adenocarcinoma; for Target coverage, over-expression category of source gene, HNSC (N = 521): Head and neck squamous cell carcinoma; for Target coverage, over-expression category of source gene, DLBC (N = 48): Lymphoid neoplasm diffuse large B-cell lymphoma; for Target coverage, over-expression category of source gene, MESO (N = 87): Mesothelioma

Substance | ENTITIES [1] | Target coverage, over-expression of source gene, AML [2] | Target coverage, over-expression of source gene, BRCA [2] | Target coverage, over-expression of source gene, CLL [2] | Target coverage, over-expression of source gene, CRC [2] | Target coverage, over-expression of source gene, GB [2] | Target coverage, over-expression of source gene, HCC [2] | Target coverage, over-expression of source gene, OC [2] | Target coverage, over-expression of source gene, OSCAR [2] | Target coverage, over-expression of source gene, PC [2] | Target coverage, over-expression of source gene, RCC [2] | Target coverage, over-expression of source gene, SCLC [2] | Target coverage for source genes of selected peptides, GBC_CCC (N = 10) [2] | Target coverage for source genes of selected peptides, GC (N = 11) [2] | Target coverage for source genes of selected peptides, HNSCC (N = 10) [2] | Target coverage for source genes of selected peptides, MEL (N = 10) [2] | Target coverage, over-expression category of source gene, BLCA (N = 408) [3] | Target coverage, over-expression category of source gene, CESC (N = 307) [3] | Target coverage, over-expression category of source gene, HNSC (N = 521) [3] | Target coverage, over-expression category of source gene, DLBC (N = 48) [3] | further results
100: peptide found in KIF20A (gene looked up) (VYIESRIGTSTSF; listed as Homo sapiens) [compound 100] | GB, HCC, NSCLC, GC | I (<19% over-expression = I) | II (20-49% = II) | I (<19% over-expression = I) | I (<19% over-expression = I) | I (<19% over-expression = I) | I (<19% over-expression = I) | II (20-49% = II) | II (20-49% = II) | I (<19% over-expression = I) | I (<19% over-expression = I) | II (20-49% = II) | I (<19% over-expression = I) | I (<19% over-expression = I) | I (<19% over-expression = I) | II (20-49% = II) | B (>=20% of tumors above the cutoff, but <50%) | A (>=50% of tumors above the cutoff) | B (>=20% of tumors above the cutoff, but <50%) | C (>=5% of tumors above the cutoff, but <20%) | Target coverage for source genes of selected peptides, NHL (N = 10) [2]: I (<19% over-expression = I); Target coverage, over-expression of source gene, pNSCLC [2]: I (<19% over-expression = I); Target coverage for source genes of selected peptides, PCA (n = 10) [2]: I (<19% over-expression = I); Target coverage for source genes of selected peptides, UBC (N = 10) [2]: I (<19% over-expression = I); Target coverage for source genes of selected peptides, UTC (N = 10) [2]: I (<19% over-expression = I); Target coverage, over-expression category of source gene, ACC (N = 79) ([3]; Adrenocortical carcinoma): C (>=5% of tumors above the cutoff, but <20%); Target coverage, over-expression category of source gene, MESO (N = 87) [3]: B (>=20% of tumors above the cutoff, but <50%)
105: peptide found in CENPE (gene looked up) (IYNETITDLL; listed as Homo sapiens) [compound 105] | GC, GB, HCC, NSCLC | – | – | – | – | – | – | – | – | – | – | – | I (<19% over-expression = I) | I (<19% over-expression = I) | I (<19% over-expression = I) | I (<19% over-expression = I) | B (>=20% of tumors above the cutoff, but <50%) | A (>=50% of tumors above the cutoff) | B (>=20% of tumors above the cutoff, but <50%) | B (>=20% of tumors above the cutoff, but <50%) | Target coverage for source genes of selected peptides, NHL (N = 10) [2]: I (<19% over-expression = I); Target coverage for source genes of selected peptides, PCA (n = 10) [2]: I (<19% over-expression = I); Target coverage for source genes of selected peptides, UBC (N = 10) [2]: I (<19% over-expression = I); Target coverage for source genes of selected peptides, UTC (N = 10) [2]: I (<19% over-expression = I)
106: peptide found in KIFC1 (gene looked up) (IYNETVRDLL; listed as Homo sapiens) [compound 106] | GC, GB, NSCLC | I (<19% over-expression = I) | I (<19% over-expression = I) | I (<19% over-expression = I) | I (<19% over-expression = I) | I (<19% over-expression = I) | I (<19% over-expression = I) | II (20-49% = II) | I (<19% over-expression = I) | I (<19% over-expression = I) | I (<19% over-expression = I) | I (<19% over-expression = I) | – | – | – | – | B (>=20% of tumors above the cutoff, but <50%) | A (>=50% of tumors above the cutoff) | B (>=20% of tumors above the cutoff, but <50%) | A (>=50% of tumors above the cutoff) | Target coverage, over-expression of source gene, pNSCLC [2]: I (<19% over-expression = I)
110: peptide found in FANCD2 (gene looked up) (SYPKIIEEF; listed as Homo sapiens) [compound 110] | GB, HCC, NSCLC, GC | I (<19% over-expression = I) | I (<19% over-expression = I) | III (50-69% = III) | I (<19% over-expression = I) | I (<19% over-expression = I) | I (<19% over-expression = I) | I (<19% over-expression = I) | I (<19% over-expression = I) | I (<19% over-expression = I) | I (<19% over-expression = I) | I (<19% over-expression = I) | I (<19% over-expression = I) | I (<19% over-expression = I) | I (<19% over-expression = I) | I (<19% over-expression = I) | B (>=20% of tumors above the cutoff, but <50%) | A (>=50% of tumors above the cutoff) | C (>=5% of tumors above the cutoff, but <20%) | A (>=50% of tumors above the cutoff) | Peptide Presentation on cancer entities ([1]; Table 9B: selected HLA-A*24 peptides, presentation on additional cancer entities): PCA; Target coverage for source genes of selected peptides, NHL (N = 10) [2]: II (20-49% = II); Target coverage, over-expression of source gene, pNSCLC [2]: I (<19% over-expression = I); Target coverage for source genes of selected peptides, PCA (n = 10) [2]: I (<19% over-expression = I); Target coverage for source genes of selected peptides, UBC (N = 10) [2]: I (<19% over-expression = I); Target coverage for source genes of selected peptides, UTC (N = 10) [2]: I (<19% over-expression = I); Target coverage, over-expression category of source gene, MESO (N = 87) [3]: C (>=5% of tumors above the cutoff, but <20%)
